Test results as given in US9365598B2, “Phosphine derivatives of fluorescent compounds” (Pierce Biotechnology, Inc., priority 2011, dated 2016).

Columns and labels:
[1] = tested on: azido-PEG4-GAM; experiment: Labeling efficiency (D/P), compound-PEG4-GAM conjugates; conditions: GAM-containing conjugates
[2] = tested on: azide-PEG4-GAR; experiment: Labeling efficiency (moles of dye per mole of protein, D/P), compound-PEG4-GAR conjugates; parameters: species or system goat; conditions: GAR-containing conjugates; 10× molar ratio

Q: For “2-((1E,3E)-3-(1-(6-(2-(3-(diphenylphosphino)-4-(methoxycarbonyl)benzamido)ethylamino)-6-oxohexyl)-3-methyl-5-sulfonato-3-(3-sulfonatopropyl)indolin-2-ylidene)prop-1-enyl)-1-(2-methoxyethyl)-3-methyl-3-(3-sulfonatopropyl)-3H-indolium-5-sulfonate [550 Compound 1-phosphine]”, which “decrease in mole dye to mole protein ratio (D/P) versus DyLight 549” value [1] is on record?
A: 2%

Q: And the “increase in mole dye to mole protein ratio (D/P) over DyLight 549 or DyLight 649” value [2]?
A: 25%
